Results reported in US20250289892A1 (TAIZHOU ENZE MEDICAL CENTER GROUP, published 2025).
No constants are given. Whether binding was seen depends on the method and setting. Some entries that bind do so weakly or less than the wild type.

Key:
[1] = biological target: HLA-G5 standard protein (human) (UniProt P17693); assay: immunoblotting of standard proteins after denaturing PAGE
[2] = biological target: HLA-G4 standard protein (human) (UniProt P17693); assay: as above
[3] = biological target: HLA-G5 standard protein (human) (UniProt P17693); assay: ELISA, HLA-G5 coated in a 2-fold gradient, antibody 1.0 ug/ml

Measured: binding

B1: monoclonal antibody (YWHG-4) against HLA-G isoforms (HLA-G1, HLA-G4, HLA-G5) (antibody, V domains shown)
VH: VQLQQSGAEVVRPGTSVKVSCKASGYASTNYLVEWIKQRPGQGLEWIGVINPGSGRIYYSEKFKGKTTLTADKSSSNAYMQLSSLTSDDSAVYFCARHYGNSAWFAYWGQGTLVTVSA
VL: DIVITQDELSLPVSLGDQAAISCRSSQSIVHSNGNTYLEWYLQKPGQSPKLLIYKVSNRFSGVPDRFRGSGSGTDFTLKISRVEAEDLGVYYCFQASHVPYTFGGGTKLEIKR
notes: FITC-labeled in the flow cytometry; also called hybridoma CCTCC NO: 2021204
binds: all assays above
